Source: the supplement of paper PMC10849652
The other results are listed elsewhere or left out.

Sequences of proteins named here, by UniProt entry; tags and fusion partners are left off. A change or cut given only in a name is not applied to a line headed by its entry.
UniProt P50452: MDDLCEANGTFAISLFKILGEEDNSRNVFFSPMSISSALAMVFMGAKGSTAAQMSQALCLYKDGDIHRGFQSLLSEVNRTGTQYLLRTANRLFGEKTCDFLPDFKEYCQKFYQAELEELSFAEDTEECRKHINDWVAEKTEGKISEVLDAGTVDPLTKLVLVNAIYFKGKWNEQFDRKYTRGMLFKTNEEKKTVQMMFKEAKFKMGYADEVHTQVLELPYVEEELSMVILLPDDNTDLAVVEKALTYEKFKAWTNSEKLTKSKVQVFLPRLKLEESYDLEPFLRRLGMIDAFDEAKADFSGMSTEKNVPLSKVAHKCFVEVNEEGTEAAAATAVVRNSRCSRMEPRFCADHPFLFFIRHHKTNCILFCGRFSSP
UniProt Q9UQ13: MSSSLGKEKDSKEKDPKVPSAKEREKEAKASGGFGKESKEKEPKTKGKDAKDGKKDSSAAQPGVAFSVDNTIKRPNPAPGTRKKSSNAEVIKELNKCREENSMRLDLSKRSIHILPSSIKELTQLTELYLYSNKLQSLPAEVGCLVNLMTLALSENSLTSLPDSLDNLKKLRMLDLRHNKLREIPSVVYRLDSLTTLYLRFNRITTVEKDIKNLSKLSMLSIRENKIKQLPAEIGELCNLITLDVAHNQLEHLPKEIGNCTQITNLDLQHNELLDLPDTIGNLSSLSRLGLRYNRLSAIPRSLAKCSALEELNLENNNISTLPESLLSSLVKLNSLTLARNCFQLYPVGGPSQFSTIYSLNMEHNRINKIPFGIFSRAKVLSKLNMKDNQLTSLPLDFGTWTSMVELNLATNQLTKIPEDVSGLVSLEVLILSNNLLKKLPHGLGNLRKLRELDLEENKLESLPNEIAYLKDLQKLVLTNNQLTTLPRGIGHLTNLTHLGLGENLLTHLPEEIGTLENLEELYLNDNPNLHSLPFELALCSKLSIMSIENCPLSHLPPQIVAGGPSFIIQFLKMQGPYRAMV
UniProt Q8TBC3: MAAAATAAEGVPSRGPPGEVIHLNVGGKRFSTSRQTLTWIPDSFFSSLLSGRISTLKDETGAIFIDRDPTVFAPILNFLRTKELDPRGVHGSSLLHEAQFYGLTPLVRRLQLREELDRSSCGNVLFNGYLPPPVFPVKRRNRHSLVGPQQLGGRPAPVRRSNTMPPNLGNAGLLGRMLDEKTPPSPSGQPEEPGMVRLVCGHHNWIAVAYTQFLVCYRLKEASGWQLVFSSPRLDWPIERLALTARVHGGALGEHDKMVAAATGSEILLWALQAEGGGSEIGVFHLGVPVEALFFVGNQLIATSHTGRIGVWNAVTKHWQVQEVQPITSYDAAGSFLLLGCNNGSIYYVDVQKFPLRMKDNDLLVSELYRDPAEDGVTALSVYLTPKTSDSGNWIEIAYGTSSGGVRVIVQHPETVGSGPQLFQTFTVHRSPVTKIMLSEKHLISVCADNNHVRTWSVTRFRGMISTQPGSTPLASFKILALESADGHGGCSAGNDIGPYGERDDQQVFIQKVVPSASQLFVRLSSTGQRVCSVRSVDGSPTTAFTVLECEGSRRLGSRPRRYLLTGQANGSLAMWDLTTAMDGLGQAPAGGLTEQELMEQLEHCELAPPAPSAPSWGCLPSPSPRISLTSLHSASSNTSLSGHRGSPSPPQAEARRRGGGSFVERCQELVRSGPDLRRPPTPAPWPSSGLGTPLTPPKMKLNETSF
UniProt Q9UBV2: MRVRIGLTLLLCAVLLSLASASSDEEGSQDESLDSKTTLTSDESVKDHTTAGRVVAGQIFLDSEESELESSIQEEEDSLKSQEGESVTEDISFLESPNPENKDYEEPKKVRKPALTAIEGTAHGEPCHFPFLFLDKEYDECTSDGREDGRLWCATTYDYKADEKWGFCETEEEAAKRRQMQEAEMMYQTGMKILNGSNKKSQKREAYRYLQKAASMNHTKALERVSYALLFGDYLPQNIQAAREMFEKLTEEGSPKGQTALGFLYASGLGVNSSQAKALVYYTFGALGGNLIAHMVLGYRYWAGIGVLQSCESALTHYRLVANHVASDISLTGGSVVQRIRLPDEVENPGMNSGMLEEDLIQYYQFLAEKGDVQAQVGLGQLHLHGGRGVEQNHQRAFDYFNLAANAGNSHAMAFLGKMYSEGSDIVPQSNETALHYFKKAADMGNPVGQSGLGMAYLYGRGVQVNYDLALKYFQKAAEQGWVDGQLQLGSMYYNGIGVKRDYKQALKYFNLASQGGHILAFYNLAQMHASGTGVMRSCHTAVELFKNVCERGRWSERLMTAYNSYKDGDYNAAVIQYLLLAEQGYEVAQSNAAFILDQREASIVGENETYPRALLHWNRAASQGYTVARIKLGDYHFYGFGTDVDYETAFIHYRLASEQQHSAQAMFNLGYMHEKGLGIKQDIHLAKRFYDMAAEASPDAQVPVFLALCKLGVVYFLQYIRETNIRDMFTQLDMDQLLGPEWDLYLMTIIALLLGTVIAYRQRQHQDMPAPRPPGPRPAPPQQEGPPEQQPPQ
UniProt Q9NPR2: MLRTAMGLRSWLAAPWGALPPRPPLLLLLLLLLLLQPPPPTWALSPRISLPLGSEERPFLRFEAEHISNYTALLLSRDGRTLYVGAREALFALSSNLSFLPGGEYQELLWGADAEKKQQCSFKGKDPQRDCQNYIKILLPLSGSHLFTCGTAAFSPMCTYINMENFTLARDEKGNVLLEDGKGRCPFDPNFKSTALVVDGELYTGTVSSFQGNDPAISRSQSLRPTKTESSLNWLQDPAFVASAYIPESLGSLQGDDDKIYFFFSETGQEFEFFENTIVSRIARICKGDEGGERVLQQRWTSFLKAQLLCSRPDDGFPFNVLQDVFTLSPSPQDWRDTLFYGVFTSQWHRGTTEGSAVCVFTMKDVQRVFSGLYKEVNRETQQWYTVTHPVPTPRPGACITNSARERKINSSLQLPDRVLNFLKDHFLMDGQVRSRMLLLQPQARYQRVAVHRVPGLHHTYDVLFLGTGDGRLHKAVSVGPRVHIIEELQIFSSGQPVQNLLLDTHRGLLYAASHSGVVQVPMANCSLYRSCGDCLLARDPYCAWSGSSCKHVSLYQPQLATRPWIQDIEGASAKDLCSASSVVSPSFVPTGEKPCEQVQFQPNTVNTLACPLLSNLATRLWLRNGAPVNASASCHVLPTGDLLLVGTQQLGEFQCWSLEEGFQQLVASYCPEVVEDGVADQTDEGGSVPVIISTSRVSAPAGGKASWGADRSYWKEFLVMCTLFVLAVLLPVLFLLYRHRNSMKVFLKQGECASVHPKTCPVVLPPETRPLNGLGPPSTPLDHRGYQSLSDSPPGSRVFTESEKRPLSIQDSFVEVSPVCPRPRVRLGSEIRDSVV
UniProt Q12874: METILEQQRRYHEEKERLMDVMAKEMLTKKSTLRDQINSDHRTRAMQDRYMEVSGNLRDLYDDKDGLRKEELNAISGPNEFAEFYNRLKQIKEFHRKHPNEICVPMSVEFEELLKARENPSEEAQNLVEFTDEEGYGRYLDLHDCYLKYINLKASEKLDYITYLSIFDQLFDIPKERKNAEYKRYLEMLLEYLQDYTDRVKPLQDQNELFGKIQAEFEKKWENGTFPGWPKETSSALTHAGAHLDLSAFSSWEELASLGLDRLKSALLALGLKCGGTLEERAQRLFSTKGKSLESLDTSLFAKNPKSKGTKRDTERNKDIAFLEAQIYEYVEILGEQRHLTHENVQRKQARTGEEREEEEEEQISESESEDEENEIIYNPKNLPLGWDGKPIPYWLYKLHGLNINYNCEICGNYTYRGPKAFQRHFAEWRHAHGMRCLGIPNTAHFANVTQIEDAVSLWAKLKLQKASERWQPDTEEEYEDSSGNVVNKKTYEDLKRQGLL
UniProt Q86VZ5: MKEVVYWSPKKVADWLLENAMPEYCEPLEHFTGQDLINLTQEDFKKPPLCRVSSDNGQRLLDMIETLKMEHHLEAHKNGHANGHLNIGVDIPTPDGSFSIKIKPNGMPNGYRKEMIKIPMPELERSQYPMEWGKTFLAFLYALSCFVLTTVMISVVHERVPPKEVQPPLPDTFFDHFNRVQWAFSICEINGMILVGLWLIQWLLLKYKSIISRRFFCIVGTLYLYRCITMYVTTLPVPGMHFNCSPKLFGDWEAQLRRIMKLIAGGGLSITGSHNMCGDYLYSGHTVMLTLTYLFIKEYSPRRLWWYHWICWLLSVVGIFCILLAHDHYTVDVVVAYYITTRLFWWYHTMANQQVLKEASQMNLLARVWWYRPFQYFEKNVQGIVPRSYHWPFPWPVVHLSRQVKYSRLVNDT
UniProt Q13435: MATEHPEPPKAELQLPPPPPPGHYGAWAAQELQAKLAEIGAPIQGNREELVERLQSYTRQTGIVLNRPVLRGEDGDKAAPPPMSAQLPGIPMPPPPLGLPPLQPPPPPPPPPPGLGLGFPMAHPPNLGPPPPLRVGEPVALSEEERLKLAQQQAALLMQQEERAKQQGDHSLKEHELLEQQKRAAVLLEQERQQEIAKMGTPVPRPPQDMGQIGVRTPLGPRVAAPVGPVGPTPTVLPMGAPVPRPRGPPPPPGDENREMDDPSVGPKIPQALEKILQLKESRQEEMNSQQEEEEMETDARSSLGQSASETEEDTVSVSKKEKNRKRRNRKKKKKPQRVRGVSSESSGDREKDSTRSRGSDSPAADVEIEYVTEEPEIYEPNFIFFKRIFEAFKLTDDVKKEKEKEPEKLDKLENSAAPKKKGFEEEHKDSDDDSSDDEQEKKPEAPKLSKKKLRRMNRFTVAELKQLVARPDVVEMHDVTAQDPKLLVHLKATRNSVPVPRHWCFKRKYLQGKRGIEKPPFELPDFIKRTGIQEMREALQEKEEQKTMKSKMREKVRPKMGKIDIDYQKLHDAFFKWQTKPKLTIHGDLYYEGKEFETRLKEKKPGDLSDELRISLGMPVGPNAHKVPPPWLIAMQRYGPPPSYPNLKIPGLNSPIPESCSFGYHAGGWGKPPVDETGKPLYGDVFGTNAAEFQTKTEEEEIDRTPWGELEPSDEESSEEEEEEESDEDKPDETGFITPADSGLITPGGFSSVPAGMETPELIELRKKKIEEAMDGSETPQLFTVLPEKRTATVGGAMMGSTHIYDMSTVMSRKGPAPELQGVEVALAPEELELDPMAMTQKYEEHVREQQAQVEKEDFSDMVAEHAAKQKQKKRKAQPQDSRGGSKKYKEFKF
UniProt Q9BQE4, whole entry, looked up: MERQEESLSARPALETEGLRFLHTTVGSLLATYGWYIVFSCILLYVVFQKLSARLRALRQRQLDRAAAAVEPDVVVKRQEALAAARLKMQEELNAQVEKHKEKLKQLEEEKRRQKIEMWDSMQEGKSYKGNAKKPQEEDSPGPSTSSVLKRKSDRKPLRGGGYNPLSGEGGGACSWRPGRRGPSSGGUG
UniProt Q9H9B4: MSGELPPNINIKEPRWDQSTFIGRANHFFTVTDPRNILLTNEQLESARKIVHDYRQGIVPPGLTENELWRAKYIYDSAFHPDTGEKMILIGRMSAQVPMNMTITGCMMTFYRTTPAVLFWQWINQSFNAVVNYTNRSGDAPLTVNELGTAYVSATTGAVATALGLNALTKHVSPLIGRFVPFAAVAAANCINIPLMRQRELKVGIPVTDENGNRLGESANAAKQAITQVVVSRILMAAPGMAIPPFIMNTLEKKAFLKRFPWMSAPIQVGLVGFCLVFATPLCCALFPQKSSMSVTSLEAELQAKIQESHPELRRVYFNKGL
UniProt Q99720, whole entry, looked up: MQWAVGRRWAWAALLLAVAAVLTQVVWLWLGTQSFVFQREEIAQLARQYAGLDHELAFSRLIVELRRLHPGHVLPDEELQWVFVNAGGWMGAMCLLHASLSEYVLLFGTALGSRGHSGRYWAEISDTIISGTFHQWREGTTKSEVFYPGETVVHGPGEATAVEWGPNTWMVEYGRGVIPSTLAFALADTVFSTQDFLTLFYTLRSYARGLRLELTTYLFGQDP
UniProt Q9UGK8: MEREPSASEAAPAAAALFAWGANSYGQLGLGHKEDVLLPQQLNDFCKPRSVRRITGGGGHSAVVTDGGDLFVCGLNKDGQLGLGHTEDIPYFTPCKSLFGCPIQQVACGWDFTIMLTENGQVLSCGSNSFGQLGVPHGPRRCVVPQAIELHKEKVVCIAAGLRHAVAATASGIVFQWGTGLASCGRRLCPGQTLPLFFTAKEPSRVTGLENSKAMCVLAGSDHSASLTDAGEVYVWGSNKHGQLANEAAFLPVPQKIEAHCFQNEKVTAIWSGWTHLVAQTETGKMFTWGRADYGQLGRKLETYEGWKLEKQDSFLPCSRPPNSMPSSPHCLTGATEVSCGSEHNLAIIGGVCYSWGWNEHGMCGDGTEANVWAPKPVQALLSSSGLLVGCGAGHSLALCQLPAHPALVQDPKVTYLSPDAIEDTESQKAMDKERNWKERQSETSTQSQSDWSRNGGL

Tests used:
Experiment in all cases: log2 fold change, soluble protein after heating vs DMSO (PISA); higher = thermal stabilisation; K562 cells, 10 uM, 30 min; active = over 0.2 and 3.5 SD of the protein, either way, in both replicates (recomputed)
[1] = compound: CC1=C(C=C(C=C1)NC(=O)C2=CC(=CC=C2)C(C)(C)C#N)NC3=CC4=C(C=C3)N=CN(C4=O)C
Summary of the method: (§1)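 K562 cells at 2×10^6 cells/mL were treated with 10 μM compound for 30 min. Aliquots were heated for 3 min across 48°C-58°C, pooled, and extracted in PBS with 0.5% NP-40 at 4°C; soluble protein was the supernatant after 21,000xg for 90 min. Soluble protein was quantified by TMTpro 16plex LC-MS/MS with channel sums equalised, and reported as log2 fold change in thermal stability against DMSO controls, with values from duplicates.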

[2] = compound: CC1=C(C=C(C=C1)NC(=O)C2=CC(=CC=C2)N(C)C)NC(=O)C3=CC=C(C=C3)O
Summary of the method: as §1

[3] = compound: CC1=CC=C(C=C1)SC2=C3C=C(SC3=CN=C2)C(=O)N
Summary of the method: as §1

[4] = compound: CC1=NC(=CC=C1)C2=C(N=C(N2)C(C)(C)C)C3=CC4=NC=CN=C4C=C3
Summary of the method: as §1

Nexturastat A = compound: CCCCN(Cc1ccc(C(=O)NO)cc1)C(=O)Nc1ccccc1 [Nexturastat A]
Summary of the method: as §1

vemurafenib = compound: CCCS(=O)(=O)Nc1ccc(F)c(C(=O)c2c[nH]c3ncc(-c4ccc(Cl)cc4)cc23)c1F [vemurafenib]
Summary of the method: as §1

[5] = compound: CCCS(=O)(=O)Nc1ccc(F)c(C(=O)c2c[nH]c3ncc(Cl)cc23)c1F
Summary of the method: as §1

[6] = compound: CCCc1cc(C)[nH]c(=O)c1CNC(=O)c1cc(-c2ccnc(N3CCN(C)CC3)c2)cc2c1cnn2C(C)C
Summary of the method: as §1

givinostat = compound: CCN(CC)Cc1ccc2cc(COC(=O)Nc3ccc(C(=O)NO)cc3)ccc2c1 [givinostat]
Summary of the method: as §1

barasertib = compound: CCN(CCCOc1ccc2c(Nc3cc(CC(=O)Nc4cccc(F)c4)[nH]n3)ncnc2c1)CCOP(=O)(O)O [barasertib]
Summary of the method: as §1

[7] = compound: CC[C@@H]1C(=O)N(C)c2cnc(Nc3ccc(C(=O)NC4CCN(C)CC4)cc3OC)nc2N1C1CCCC1
Summary of the method: as §1

volasertib = compound: CC[C@@H]1C(=O)N(C)c2cnc(Nc3ccc(C(=O)N[C@H]4CC[C@H](N5CCN(CC6CC6)CC5)CC4)cc3OC)nc2N1C(C)C [volasertib]
Summary of the method: as §1

[8] = compound: CC[C@H](C)N1C=C(C2=C(C=C(C=C21)C3=CN=C(C=C3)N4CCNCC4)C(=O)NCC5=C(C=C(NC5=O)C)C)C
Summary of the method: as §1

epoxomicin = compound: CC[C@H](C)[C@@H](C(=O)N[C@@H]([C@@H](C)O)C(=O)N[C@@H](CC(C)C)C(=O)[C@]1(CO1)C)NC(=O)[C@H]([C@@H](C)CC)N(C)C(=O)C [epoxomicin]
Summary of the method: as §1

[9] = compound: CCn1c(C(=O)N(C2CC2)C2CC2)cc2c3c(ncn3C)c(Nc3cc(C)n(C)n3)nc21
Summary of the method: as §1

[10] = compound: CCn1cc(-c2ccnc3[nH]c(-c4cccc(CN(C)C)c4)cc23)c(-c2ccc(NC(=O)N(C)C)cc2)n1
Summary of the method: as §1

[11] = compound: CN(C)CC(=O)Nc1ccc2[nH]c(=O)c3ccccc3c2c1
Summary of the method: as §1

rosiglitazone = compound: CN(CCOC1=CC=C(C=C1)C[C@H]2C(=O)NC(=O)S2)C3=CC=CC=N3 (racemic) [rosiglitazone]
Summary of the method: as §1

[12] = compound: CN1C2=C(C3=C1C(=O)N(N=C3)CC4=CC(=CC=C4)N)SC(=C2)S(=O)C
Summary of the method: as §1

[13] = compound: CN1CCC(CNc2ccc3ncc(-c4cccc(OC(F)(F)F)c4)n3n2)CC1
Summary of the method: as §1

Measured: log2 fold change

SFSWAP isoform 2 (UniProt Q12872)
inactive: [1] -0.003 | [2] 0.04 | [3] -0.008 | [4] -0.008 | Nexturastat A 0.055 | vemurafenib 0 | [5] 0.055 | [6] -0.007 | givinostat 0.08 | barasertib -0.19 | [7] 0.059 | volasertib -0.231 | [8] 0.049 | epoxomicin 0.005 | [9] 0.019 | [10] 0.063 | [11] 0.038 | rosiglitazone -0.01 | [12] 0.008 | [13] 0

SERPINH1 (UniProt P50454)
inactive: [1] 0.004 | [2] -0.032 | [3] 0.011 | [4] -0.02 | Nexturastat A 0.011 | vemurafenib 0.014 | [5] 0.012 | [6] 0.027 | givinostat 0.007 | barasertib 0.007 | [7] 0 | volasertib 0.005 | [8] 0.021 | epoxomicin 0.001 | [9] 0.011 | [10] -0.013 | [11] -0.015 | rosiglitazone 0.002 | [12] -0.006 | [13] 0.091

SERPINB8 (UniProt P50452)
inactive: [1] -0.099 | [2] 0.006 | [3] -0.06 | [4] -0.028 | Nexturastat A 0.029 | vemurafenib -0.055 | [5] -0.034 | [6] 0.006 | givinostat -0.017 | barasertib 0.045 | [7] -0.047 | volasertib 0.109 | [8] -0.041 | epoxomicin 0.005 | [9] 0.026 | [10] -0.046 | [11] -0.105 | rosiglitazone -0.042 | [12] -0.015 | [13] -0.012

SHOC2 (UniProt Q9UQ13)
inactive: [1] -0.073 | [2] -0.039 | [3] 0.014 | [4] -0.012 | Nexturastat A -0.007 | vemurafenib 0.042 | [5] 0.007 | [6] -0.012 | givinostat 0.072 | barasertib 0.04 | [7] 0.088 | volasertib -0.02 | [8] 0.035 | epoxomicin 0.004 | [9] -0.014 | [10] -0.107 | [11] 0.045 | rosiglitazone 0.009 | [12] 0.003 | [13] -0.038

SHKBP1 (UniProt Q8TBC3)
inactive: [1] -0.02 | [2] 0.06 | [3] -0.054 | [4] 0.059 | Nexturastat A 0.044 | vemurafenib -0.013 | [5] -0.045 | [6] -0.012 | givinostat -0.012 | barasertib 0.023 | [7] 0.019 | volasertib 0.07 | [8] -0.018 | epoxomicin 0.026 | [9] -0.049 | [10] 0.027 | [11] -0.043 | rosiglitazone 0.008 | [12] -0.055 | [13] 0.034

SEL1L (UniProt Q9UBV2)
inactive: [1] 0.036 | [2] -0.02 | [3] -0.016 | [4] 0.011 | Nexturastat A -0.09 | vemurafenib -0.013 | [5] 0.022 | [6] 0.023 | givinostat 0.018 | barasertib -0.012 | [7] -0.038 | volasertib -0.052 | [8] 0.038 | epoxomicin 0.006 | [9] 0 | [10] -0.023 | [11] -0.026 | rosiglitazone 0.043 | [12] 0.024 | [13] 0.024

SEMA4B (UniProt Q9NPR2)
inactive: [1] -0.022 | [2] -0.068 | [3] 0.056 | [4] -0.046 | Nexturastat A 0.021 | vemurafenib -0.056 | [5] -0.002 | [6] -0.038 | givinostat -0.115 | barasertib 0.03 | [7] -0.034 | volasertib 0.042 | [8] -0.068 | epoxomicin 0.027 | [9] 0.013 | [10] -0.028 | [11] -0.079 | rosiglitazone -0.013 | [12] 0.009 | [13] -0.19

SF3A3 (UniProt Q12874)
inactive: [1] 0.004 | [2] -0.136 | [3] 0.026 | [4] 0.008 | Nexturastat A 0.181 | vemurafenib 0.023 | [5] 0.009 | [6] -0.223 | givinostat 0.005 | barasertib 0.001 | [7] 0.01 | volasertib -0.112 | [8] 0.06 | epoxomicin 0.033 | [9] -0.07 | [10] -0.002 | [11] 0.046 | rosiglitazone 0.024 | [12] 0.071 | [13] -0.022

SGMS1 (UniProt Q86VZ5)
inactive: [1] -0.034 | [2] -0.018 | [3] -0.025 | [4] 0.005 | Nexturastat A -0.091 | vemurafenib 0.067 | [5] -0.066 | [6] 0.003 | givinostat -0.007 | barasertib -0.025 | [7] -0.007 | volasertib -0.049 | [8] -0.009 | epoxomicin 0 | [9] 0.003 | [10] 0.011 | [11] -0.002 | rosiglitazone 0.009 | [12] -0.074 | [13] 0.12

Quoted at random: 2 records from the list.
SEL1L (UniProt Q9UBV2)
inactive: [1] 0.036 | [2] -0.02 | [3] -0.016 | [4] 0.011 | Nexturastat A -0.09 | vemurafenib -0.013 | [5] 0.022 | [6] 0.023 | givinostat 0.018 | barasertib -0.012 | [7] -0.038 | volasertib -0.052 | [8] 0.038 | epoxomicin 0.006 | [9] 0 | [10] -0.023 | [11] -0.026 | rosiglitazone 0.043 | [12] 0.024 | [13] 0.024

SFSWAP isoform 2 (UniProt Q12872)
inactive: [1] -0.003 | [2] 0.04 | [3] -0.008 | [4] -0.008 | Nexturastat A 0.055 | vemurafenib 0 | [5] 0.055 | [6] -0.007 | givinostat 0.08 | barasertib -0.19 | [7] 0.059 | volasertib -0.231 | [8] 0.049 | epoxomicin 0.005 | [9] 0.019 | [10] 0.063 | [11] 0.038 | rosiglitazone -0.01 | [12] 0.008 | [13] 0

Following part:

SF3B2 (UniProt Q13435)
inactive: [1] 0.05 | [2] -0.025 | [3] -0.019 | [4] -0.05 | Nexturastat A 0.104 | vemurafenib 0.021 | [5] 0.01 | [6] 0.055 | givinostat -0.005 | barasertib -0.025 | [7] 0.058 | volasertib -0.038 | [8] 0.019 | epoxomicin -0.086 | [9] 0.005 | [10] 0.1 | [11] 0 | rosiglitazone -0.03 | [12] 0.102 | [13] 0.062

SELENOS (UniProt Q9BQE4)
inactive: [1] 0 | [2] 0.002 | [3] 0.001 | [4] 0.001 | Nexturastat A 0.086 | vemurafenib 0.002 | [5] -0.043 | [6] -0.02 | givinostat -0.016 | barasertib -0.043 | [7] 0.009 | volasertib 0 | [8] -0.031 | epoxomicin 0.169 | [9] 0.051 | [10] -0.023 | [11] -0.044 | rosiglitazone 0.034 | [12] 0.008 | [13] 0.042

SFXN1 (UniProt Q9H9B4)
inactive: [1] 0.048 | [2] -0.011 | [3] 0.022 | [4] 0.05 | Nexturastat A -0.064 | vemurafenib 0.013 | [5] 0.052 | [6] -0.003 | givinostat 0.013 | barasertib -0.01 | [7] -0.062 | volasertib 0.012 | [8] -0.023 | epoxomicin 0 | [9] 0.009 | [10] -0.009 | [11] 0.027 | rosiglitazone 0.028 | [12] -0.059 | [13] -0.053

SIGMAR1 (UniProt Q99720)
inactive: [1] -0.035 | [2] 0.034 | [3] -0.047 | [4] 0.074 | Nexturastat A 0.04 | vemurafenib -0.044 | [5] 0.038 | [6] -0.051 | givinostat -0.002 | barasertib 0.024 | [7] 0.017 | volasertib 0.025 | [8] -0.032 | epoxomicin 0.01 | [9] -0.03 | [10] -0.128 | [11] -0.017 | rosiglitazone 0.034 | [12] -0.053 | [13] 0.069

SEPTIN8 (UniProt Q92599)
inactive: [1] 0.001 | [2] 0.003 | [3] 0.028 | [4] 0.015 | Nexturastat A -0.126 | vemurafenib 0.016 | [5] 0.007 | [6] -0.012 | givinostat -0.017 | barasertib -0.006 | [7] 0.033 | volasertib 0.025 | [8] -0.014 | epoxomicin 0.006 | [9] 0.019 | [10] 0.007 | [11] 0.001 | rosiglitazone -0.011 | [12] -0.109 | [13] 0.015

SERGEF (UniProt Q9UGK8)
inactive: [1] -0.006 | [2] -0.263 | [3] -0.088 | [4] 0.003 | Nexturastat A -0.148 | vemurafenib 0.106 | [5] 0.139 | [6] 0.009 | givinostat 0.093 | barasertib -0.015 | [7] 0 | volasertib -0.008 | [8] -0.016 | epoxomicin -0.002 | [9] -0.027 | [10] 0.011 | [11] -0.006 | rosiglitazone -0.009 | [12] 0.076 | [13] -0.129

SH3BP5 (UniProt O60239)
inactive: [1] -0.031 | [2] -0.042 | [3] 0.017 | [4] 0.152 | Nexturastat A 0.059 | vemurafenib -0.02 | [5] 0.013 | [6] 0 | givinostat -0.002 | barasertib 0.02 | [7] 0.016 | volasertib -0.023 | [8] 0.077 | epoxomicin 0.086 | [9] -0.012 | [10] -0.033 | [11] 0.023 | rosiglitazone 0.041 | [12] -0.153 | [13] 0
